# Measurements from paper PMC7819943, “Rice protein-binding microarrays: a tool to detect cis-acting elements near promoter regions in rice”.
# The chains behind the UniProt entries cited, without tags or fusion partners.
# UniProt Q0JBA9, entry or part of it: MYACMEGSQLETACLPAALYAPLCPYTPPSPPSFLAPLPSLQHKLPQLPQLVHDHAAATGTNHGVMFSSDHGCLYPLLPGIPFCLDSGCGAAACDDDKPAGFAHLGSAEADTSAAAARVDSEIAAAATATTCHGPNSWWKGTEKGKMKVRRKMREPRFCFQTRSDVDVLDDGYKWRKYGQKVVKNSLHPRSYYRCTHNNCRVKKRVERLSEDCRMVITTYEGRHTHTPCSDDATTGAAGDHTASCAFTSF
# The other results are listed elsewhere or left out.
# Biological target: OsWRKY34 (Oryza sativa, UniProt Q0JBA9 1-250)
# Test: protein-binding microarray (RPBM); PBS, 2% BSA, 51.3 ng/ul salmon testes DNA, 50 uM zinc acetate, 200 nM TF, 25 C, 1 h; high values mean tight binding
# Conditions: protein: recombinant; tags: N-terminal polyhistidine and DsRed monomer fusion (pET32a); label: CyDye5-dUTP incorporated in the synthesized complementary strand; 3' TTTTT single-stranded linker to array surface; dsDNA, one strand shown
# Outline: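 Transcription factors were made in E. coli BL21-CodonPlus as N-terminal fusions to a polyhistidine tag and DsRed, then purified on Ni–NTA. After primer extension with Cy5-dUTP and blocking with 2% BSA, a custom Agilent array was exposed for 1 h at 25 °C to 200 nM protein in PBS, 2% BSA, salmon testes DNA and 50 µM zinc acetate. Washed arrays were scanned on an Axon 4000B, and the binding signal is per-feature fluorescence intensity in arbitrary units.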
row,Sequence,binding signal
1,CGCCGCCTGCACCACCCTACCGGCCACTTCCACTGCCAATCGGAGTCACCTAGTGCAG,8440 fluorescence intensity (a.u.)
2,CCGCCGCTGAGACGTTTTATTCATCGCTGCCATCAACCAACGGAGTCACCTAGTGCAG,8140 fluorescence intensity (a.u.)
3,GTGTTTGGTTGCGTGCCGCAATTGAGTCAATCCACACTTTCGGAGTCACCTAGTGCAG,8420 fluorescence intensity (a.u.)
4,ATATTATAGTGAGGGGTGGGAGGAACCTGTTCCCGCTGCTCGGAGTCACCTAGTGCAG,11700 fluorescence intensity (a.u.)
5,TTCACATCTACACTTTCTTTATGTTGGTTATTTATACTATCGGAGTCACCTAGTGCAG,11800 fluorescence intensity (a.u.)
6,AGGCGGCGCATGGCGCGGCGCGGCGTGGGGTGGGGTGGGGCGGAGTCACCTAGTGCAG,14400 fluorescence intensity (a.u.)
7,GCCGCATCCCGCCGCCGCCGCCTCTGACCCCGCGCGGCGGCGGAGTCACCTAGTGCAG,8770 fluorescence intensity (a.u.)
8,ATTATAGTATTAGTGTGGTGTGGTGTGTTGTTTATGCAATCGGAGTCACCTAGTGCAG,8790 fluorescence intensity (a.u.)
9,AATTGTATATCTTTTTGAAACCAAGAGTGCCAACTTTTCACGGAGTCACCTAGTGCAG,8610 fluorescence intensity (a.u.)
10,TCATTGCTTTACTTGCATTTACTATTTATTTTTTTCTAAGCGGAGTCACCTAGTGCAG,8990 fluorescence intensity (a.u.)
11,CGGGATCCGTTTTGTAGCAGTCCTCTTAATTAATTTACCGCGGAGTCACCTAGTGCAG,9390 fluorescence intensity (a.u.)
12,CTTTCATTAACCGTAATTCGTCATTTACATTGTGATCACACGGAGTCACCTAGTGCAG,9030 fluorescence intensity (a.u.)
13,ACCATCCGCTTCTTCTCCAAACGCCCACGCGCTTCTCACCCGGAGTCACCTAGTGCAG,8960 fluorescence intensity (a.u.)
14,ACCTCAGCCACACTCCCAGGCTTCGCCTTCCGGAAGCTTCCGGAGTCACCTAGTGCAG,8540 fluorescence intensity (a.u.)
15,GTGGGAGGCCGCAACAGCCAATCTCGCCTCTTTGCGCTTTCGGAGTCACCTAGTGCAG,8130 fluorescence intensity (a.u.)
16,ATTTTATTTTAAAAATATTTTAAACTCCTTTTTGATTTTACGGAGTCACCTAGTGCAG,8430 fluorescence intensity (a.u.)
17,TGGGAATGGATCAGTAGACTGTTGGTGATGCTCAATTTACCGGAGTCACCTAGTGCAG,8230 fluorescence intensity (a.u.)
18,AACTTTTCCATCACATCGTTCTAATTTCTTCAAACTTCCACGGAGTCACCTAGTGCAG,9580 fluorescence intensity (a.u.)
19,CAATCCGGACCATATAAGTGTTTTCCTTTTTTAATTCTTTCGGAGTCACCTAGTGCAG,11300 fluorescence intensity (a.u.)
20,GTTTAAGGACCGCTGATGCATTTTACTCTTTTATTTTCAACGGAGTCACCTAGTGCAG,9190 fluorescence intensity (a.u.)
21,AAATGGGTGGTTGTCTCTCCCTCTCCTCCTTTCTTCTCCACGGAGTCACCTAGTGCAG,8780 fluorescence intensity (a.u.)

# Reformatted bar-delimited: entries from further up
row | Sequence | binding signal
2 | CCGCCGCTGAGACGTTTTATTCATCGCTGCCATCAACCAACGGAGTCACCTAGTGCAG | 8140 fluorescence intensity (a.u.)
6 | AGGCGGCGCATGGCGCGGCGCGGCGTGGGGTGGGGTGGGGCGGAGTCACCTAGTGCAG | 14400 fluorescence intensity (a.u.)
9 | AATTGTATATCTTTTTGAAACCAAGAGTGCCAACTTTTCACGGAGTCACCTAGTGCAG | 8610 fluorescence intensity (a.u.)
10 | TCATTGCTTTACTTGCATTTACTATTTATTTTTTTCTAAGCGGAGTCACCTAGTGCAG | 8990 fluorescence intensity (a.u.)
11 | CGGGATCCGTTTTGTAGCAGTCCTCTTAATTAATTTACCGCGGAGTCACCTAGTGCAG | 9390 fluorescence intensity (a.u.)
14 | ACCTCAGCCACACTCCCAGGCTTCGCCTTCCGGAAGCTTCCGGAGTCACCTAGTGCAG | 8540 fluorescence intensity (a.u.)
15 | GTGGGAGGCCGCAACAGCCAATCTCGCCTCTTTGCGCTTTCGGAGTCACCTAGTGCAG | 8130 fluorescence intensity (a.u.)
19 | CAATCCGGACCATATAAGTGTTTTCCTTTTTTAATTCTTTCGGAGTCACCTAGTGCAG | 11300 fluorescence intensity (a.u.)

# (next part)

row,Sequence,binding signal
1,TAGATTAGTTTCACCGGTTCATCCACCTTAAGAATTTTTTCGGAGTCACCTAGTGCAG,8170 fluorescence intensity (a.u.)
2,CGAACGGTCAAACATATTTAAAAAAGTCAACGACGTCAAACGGAGTCACCTAGTGCAG,8400 fluorescence intensity (a.u.)
3,TTGCCGTACGTTTTACTCGCAAGTGCAGTGCTTCTAGAACCGGAGTCACCTAGTGCAG,8710 fluorescence intensity (a.u.)
4,CTATTCTCTGCGCCACATCATCGTATGAGTCTACACGGTACGGAGTCACCTAGTGCAG,11700 fluorescence intensity (a.u.)
5,TTTTTTTTCGGGGAGTAGTTTCTCTGAATTCATCGCTAGACGGAGTCACCTAGTGCAG,10100 fluorescence intensity (a.u.)
6,ACGGCCGTCCGTCTGCACGAAGCATTTCCATCCACCACACCGGAGTCACCTAGTGCAG,10100 fluorescence intensity (a.u.)
7,ATCTGGGTTCTTTTTTTTTCTTTTTTTGCCGGGTTTTTTTCGGAGTCACCTAGTGCAG,14800 fluorescence intensity (a.u.)
8,TCTCGGTTTTCTCTTTAGCGTTCTTGCTGGGATTTGATGCCGGAGTCACCTAGTGCAG,8950 fluorescence intensity (a.u.)
9,TTCCGGCCCCTTTGCATTTGTGCCTTGGCGGGCGCAGGGGCGGAGTCACCTAGTGCAG,8380 fluorescence intensity (a.u.)
10,TCTTGACCAACGTTTAACCATTCGTTTTATTTAAAATTTTCGGAGTCACCTAGTGCAG,9450 fluorescence intensity (a.u.)
11,TGTTGCGGTTAGCTTGTGGCTCAGTTCTTTTACCTTCTGGCGGAGTCACCTAGTGCAG,11200 fluorescence intensity (a.u.)
12,ACGCCTTCTTCTTTCGCTTCTTGTTGCCGCCGCCGCCACCCGGAGTCACCTAGTGCAG,8230 fluorescence intensity (a.u.)
13,GTCCTTCTTCTTCTCCAGTCCACACACACAAAGGCACTCTCGGAGTCACCTAGTGCAG,8560 fluorescence intensity (a.u.)
14,CTCTCTCTCTCTTTTCTTTTGCTAATTCATTCATATAATACGGAGTCACCTAGTGCAG,9770 fluorescence intensity (a.u.)
15,TTTGATGGTGCTTGATTTTTTTTTATTTCATCAGTCATCCCGGAGTCACCTAGTGCAG,12400 fluorescence intensity (a.u.)
16,CGGAGGGGTTGGGCTTGCGGGCGGCGTGTACCTTGTGCACCGGAGTCACCTAGTGCAG,9410 fluorescence intensity (a.u.)
17,GTCGTTGTTTAAAAGTGTTAATGGCCTGGTGTCTAGCTAGCGGAGTCACCTAGTGCAG,9180 fluorescence intensity (a.u.)
18,CGGTCAAACATGTACTAAAAAGTCAACGGTGTCAAACATTCGGAGTCACCTAGTGCAG,15900 fluorescence intensity (a.u.)
19,CCGCTCGCCGCTCCGCCGTAAAACCCGTGCTCCACCACCGCGGAGTCACCTAGTGCAG,8080 fluorescence intensity (a.u.)
20,ACCCACCGTTGCGTTGAGTCGTTGACCCGCAGTTCCCCTTCGGAGTCACCTAGTGCAG,12700 fluorescence intensity (a.u.)
21,CCTTTGTCGAGCCATGATTTCTTCTCTCTCAAAGAGCTCACGGAGTCACCTAGTGCAG,8260 fluorescence intensity (a.u.)
